# According to the supplement of paper PMC12067093, “Discovery and optimisation of a covalent ligand for TRIM25 and its application to targeted protein ubiquitination” (Chemical Science, 2025):
# By UniProt entry, the sequences of proteins in these tests, tags left out. Where a name states a change or a piece, a line headed by the entry shows the natural chain unless it says otherwise.
# UniProt O43847: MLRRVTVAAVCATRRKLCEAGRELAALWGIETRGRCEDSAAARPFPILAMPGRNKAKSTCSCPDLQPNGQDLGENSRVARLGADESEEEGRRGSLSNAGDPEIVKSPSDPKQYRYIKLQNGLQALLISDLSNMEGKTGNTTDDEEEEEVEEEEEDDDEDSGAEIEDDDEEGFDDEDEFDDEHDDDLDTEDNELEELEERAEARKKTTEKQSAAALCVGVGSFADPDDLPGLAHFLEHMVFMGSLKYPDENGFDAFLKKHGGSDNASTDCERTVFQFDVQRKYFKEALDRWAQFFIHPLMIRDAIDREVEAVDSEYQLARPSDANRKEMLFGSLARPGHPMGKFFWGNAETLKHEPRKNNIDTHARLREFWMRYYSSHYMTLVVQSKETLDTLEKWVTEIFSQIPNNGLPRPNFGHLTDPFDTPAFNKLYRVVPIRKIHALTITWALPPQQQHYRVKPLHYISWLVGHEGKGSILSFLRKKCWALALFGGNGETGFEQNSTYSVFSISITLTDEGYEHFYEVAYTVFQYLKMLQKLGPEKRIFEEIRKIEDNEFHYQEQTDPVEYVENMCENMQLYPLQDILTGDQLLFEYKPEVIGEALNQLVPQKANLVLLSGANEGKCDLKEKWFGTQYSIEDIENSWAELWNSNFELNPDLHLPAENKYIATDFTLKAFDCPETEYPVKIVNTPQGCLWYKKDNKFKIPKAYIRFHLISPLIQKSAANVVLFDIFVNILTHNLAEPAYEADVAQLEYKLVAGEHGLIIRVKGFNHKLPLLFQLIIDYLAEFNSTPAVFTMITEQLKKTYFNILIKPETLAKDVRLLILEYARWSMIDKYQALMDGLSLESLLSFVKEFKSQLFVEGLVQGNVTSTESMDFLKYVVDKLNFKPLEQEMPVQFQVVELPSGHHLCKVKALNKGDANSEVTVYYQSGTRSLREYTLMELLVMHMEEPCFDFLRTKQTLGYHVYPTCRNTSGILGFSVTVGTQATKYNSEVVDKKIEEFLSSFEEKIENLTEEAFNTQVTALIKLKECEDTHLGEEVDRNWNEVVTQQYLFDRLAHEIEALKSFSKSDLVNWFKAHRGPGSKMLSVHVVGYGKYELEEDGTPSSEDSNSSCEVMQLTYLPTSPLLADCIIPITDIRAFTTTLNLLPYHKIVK
# UniProt Q9BYT8, whole entry, looked up: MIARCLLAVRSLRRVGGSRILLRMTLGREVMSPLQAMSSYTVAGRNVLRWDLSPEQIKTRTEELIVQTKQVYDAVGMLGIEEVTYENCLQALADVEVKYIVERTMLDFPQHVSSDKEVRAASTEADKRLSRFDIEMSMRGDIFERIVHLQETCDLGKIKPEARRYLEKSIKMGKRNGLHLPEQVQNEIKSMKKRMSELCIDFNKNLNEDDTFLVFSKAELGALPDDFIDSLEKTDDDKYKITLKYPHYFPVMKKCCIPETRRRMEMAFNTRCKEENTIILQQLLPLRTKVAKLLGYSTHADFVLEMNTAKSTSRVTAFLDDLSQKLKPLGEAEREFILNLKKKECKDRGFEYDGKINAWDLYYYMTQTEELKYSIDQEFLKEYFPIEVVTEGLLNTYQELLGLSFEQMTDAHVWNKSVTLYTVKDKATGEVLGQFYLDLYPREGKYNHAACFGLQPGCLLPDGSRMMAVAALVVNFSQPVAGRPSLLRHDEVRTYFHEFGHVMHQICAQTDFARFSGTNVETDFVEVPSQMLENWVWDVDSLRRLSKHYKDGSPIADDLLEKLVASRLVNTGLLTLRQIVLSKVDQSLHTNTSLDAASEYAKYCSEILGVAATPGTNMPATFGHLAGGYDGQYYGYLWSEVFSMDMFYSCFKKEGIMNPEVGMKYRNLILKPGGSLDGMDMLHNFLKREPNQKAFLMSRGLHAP
# UniProt P46087: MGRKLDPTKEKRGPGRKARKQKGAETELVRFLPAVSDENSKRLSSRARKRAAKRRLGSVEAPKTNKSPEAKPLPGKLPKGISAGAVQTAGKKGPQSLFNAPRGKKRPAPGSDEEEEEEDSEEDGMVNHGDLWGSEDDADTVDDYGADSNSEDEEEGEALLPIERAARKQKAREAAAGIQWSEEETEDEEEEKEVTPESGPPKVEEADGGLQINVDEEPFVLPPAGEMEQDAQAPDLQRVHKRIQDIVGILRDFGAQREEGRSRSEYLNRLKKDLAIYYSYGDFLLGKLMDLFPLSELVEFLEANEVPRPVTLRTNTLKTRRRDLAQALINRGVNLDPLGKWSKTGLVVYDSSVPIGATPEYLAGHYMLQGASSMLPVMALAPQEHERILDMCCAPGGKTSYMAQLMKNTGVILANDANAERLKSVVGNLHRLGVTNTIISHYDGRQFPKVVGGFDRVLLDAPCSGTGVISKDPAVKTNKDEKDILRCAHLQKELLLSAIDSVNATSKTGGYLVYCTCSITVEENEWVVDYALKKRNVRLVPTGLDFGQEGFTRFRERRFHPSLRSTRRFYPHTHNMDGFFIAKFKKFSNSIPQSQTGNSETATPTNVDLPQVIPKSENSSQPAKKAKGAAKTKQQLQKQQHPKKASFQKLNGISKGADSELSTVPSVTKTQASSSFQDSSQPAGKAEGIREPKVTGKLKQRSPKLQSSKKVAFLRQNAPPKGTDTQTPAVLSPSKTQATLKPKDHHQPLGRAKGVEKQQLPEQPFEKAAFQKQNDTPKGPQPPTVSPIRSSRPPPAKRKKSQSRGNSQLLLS
# UniProt Q9NX02: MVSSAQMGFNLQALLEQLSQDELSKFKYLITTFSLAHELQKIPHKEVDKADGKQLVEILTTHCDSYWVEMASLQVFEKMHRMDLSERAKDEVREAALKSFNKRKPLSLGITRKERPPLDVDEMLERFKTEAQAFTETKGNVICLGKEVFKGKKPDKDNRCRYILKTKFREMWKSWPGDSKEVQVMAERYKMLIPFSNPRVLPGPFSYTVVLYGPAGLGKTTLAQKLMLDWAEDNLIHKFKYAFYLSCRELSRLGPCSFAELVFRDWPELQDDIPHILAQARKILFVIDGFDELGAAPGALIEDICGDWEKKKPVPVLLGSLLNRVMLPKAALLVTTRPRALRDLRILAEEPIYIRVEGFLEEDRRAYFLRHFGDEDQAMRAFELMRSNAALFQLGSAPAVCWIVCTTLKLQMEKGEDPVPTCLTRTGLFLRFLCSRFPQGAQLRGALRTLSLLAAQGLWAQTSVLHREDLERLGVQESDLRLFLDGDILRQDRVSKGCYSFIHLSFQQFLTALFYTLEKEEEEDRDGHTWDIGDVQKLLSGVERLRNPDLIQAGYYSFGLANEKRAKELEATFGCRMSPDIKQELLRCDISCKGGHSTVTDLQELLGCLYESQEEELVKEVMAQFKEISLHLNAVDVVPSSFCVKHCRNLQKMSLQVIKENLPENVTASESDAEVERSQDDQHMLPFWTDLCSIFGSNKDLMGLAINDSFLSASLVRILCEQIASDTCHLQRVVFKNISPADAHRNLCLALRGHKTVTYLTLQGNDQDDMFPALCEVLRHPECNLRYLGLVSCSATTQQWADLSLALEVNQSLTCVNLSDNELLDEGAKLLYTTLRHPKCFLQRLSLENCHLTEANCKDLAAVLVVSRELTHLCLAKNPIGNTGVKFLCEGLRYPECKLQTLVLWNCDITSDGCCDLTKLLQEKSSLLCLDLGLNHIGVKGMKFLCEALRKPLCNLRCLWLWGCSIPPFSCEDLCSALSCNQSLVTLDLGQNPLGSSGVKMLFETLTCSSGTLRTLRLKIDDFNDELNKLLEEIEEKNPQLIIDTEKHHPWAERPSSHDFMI
# UniProt Q9NPE3: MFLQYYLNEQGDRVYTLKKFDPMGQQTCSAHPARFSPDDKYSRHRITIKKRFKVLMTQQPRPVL
# UniProt Q5C9Z4: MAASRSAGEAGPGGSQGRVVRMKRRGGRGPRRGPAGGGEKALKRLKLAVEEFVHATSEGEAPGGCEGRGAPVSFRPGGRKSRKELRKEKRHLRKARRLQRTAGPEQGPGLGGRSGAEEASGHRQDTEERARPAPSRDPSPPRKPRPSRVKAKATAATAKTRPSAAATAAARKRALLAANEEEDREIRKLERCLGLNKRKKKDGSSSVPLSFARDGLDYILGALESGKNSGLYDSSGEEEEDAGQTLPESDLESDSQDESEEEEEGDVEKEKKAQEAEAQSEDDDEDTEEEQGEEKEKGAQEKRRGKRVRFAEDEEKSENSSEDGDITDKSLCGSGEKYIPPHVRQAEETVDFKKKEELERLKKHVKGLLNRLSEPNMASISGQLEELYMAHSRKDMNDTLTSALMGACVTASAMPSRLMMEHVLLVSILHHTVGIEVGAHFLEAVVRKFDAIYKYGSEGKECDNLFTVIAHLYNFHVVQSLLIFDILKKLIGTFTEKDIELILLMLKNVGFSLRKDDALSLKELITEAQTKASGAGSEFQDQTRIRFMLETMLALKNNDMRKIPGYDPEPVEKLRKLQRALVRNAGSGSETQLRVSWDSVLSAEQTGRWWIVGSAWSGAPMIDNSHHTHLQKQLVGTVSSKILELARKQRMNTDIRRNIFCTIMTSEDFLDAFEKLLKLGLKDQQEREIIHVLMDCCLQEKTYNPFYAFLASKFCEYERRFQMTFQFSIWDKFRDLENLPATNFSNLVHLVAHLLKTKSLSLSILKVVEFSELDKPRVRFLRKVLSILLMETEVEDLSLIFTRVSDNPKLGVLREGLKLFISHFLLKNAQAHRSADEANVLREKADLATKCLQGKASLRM
# UniProt O75607: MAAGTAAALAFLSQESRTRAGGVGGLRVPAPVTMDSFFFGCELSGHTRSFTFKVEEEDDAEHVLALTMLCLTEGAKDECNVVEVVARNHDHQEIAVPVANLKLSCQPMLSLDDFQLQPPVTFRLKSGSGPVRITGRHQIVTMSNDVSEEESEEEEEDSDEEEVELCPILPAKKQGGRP
# UniProt Q9Y3C1: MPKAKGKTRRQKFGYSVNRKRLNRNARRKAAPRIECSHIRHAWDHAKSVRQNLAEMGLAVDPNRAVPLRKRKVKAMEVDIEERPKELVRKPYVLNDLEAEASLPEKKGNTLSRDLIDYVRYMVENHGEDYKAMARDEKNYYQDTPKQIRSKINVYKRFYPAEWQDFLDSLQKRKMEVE
# UniProt P10588: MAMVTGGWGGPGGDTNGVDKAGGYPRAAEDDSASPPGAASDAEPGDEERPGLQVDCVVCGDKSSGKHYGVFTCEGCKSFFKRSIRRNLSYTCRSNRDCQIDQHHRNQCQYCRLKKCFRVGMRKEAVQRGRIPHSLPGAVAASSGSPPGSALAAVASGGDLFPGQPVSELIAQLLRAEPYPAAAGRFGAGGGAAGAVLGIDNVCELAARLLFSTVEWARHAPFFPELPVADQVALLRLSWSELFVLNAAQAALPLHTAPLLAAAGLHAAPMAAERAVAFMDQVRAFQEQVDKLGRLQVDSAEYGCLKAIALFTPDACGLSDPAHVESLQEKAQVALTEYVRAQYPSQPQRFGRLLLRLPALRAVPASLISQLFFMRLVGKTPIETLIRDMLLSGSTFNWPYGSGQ
# UniProt Q9H7Z3: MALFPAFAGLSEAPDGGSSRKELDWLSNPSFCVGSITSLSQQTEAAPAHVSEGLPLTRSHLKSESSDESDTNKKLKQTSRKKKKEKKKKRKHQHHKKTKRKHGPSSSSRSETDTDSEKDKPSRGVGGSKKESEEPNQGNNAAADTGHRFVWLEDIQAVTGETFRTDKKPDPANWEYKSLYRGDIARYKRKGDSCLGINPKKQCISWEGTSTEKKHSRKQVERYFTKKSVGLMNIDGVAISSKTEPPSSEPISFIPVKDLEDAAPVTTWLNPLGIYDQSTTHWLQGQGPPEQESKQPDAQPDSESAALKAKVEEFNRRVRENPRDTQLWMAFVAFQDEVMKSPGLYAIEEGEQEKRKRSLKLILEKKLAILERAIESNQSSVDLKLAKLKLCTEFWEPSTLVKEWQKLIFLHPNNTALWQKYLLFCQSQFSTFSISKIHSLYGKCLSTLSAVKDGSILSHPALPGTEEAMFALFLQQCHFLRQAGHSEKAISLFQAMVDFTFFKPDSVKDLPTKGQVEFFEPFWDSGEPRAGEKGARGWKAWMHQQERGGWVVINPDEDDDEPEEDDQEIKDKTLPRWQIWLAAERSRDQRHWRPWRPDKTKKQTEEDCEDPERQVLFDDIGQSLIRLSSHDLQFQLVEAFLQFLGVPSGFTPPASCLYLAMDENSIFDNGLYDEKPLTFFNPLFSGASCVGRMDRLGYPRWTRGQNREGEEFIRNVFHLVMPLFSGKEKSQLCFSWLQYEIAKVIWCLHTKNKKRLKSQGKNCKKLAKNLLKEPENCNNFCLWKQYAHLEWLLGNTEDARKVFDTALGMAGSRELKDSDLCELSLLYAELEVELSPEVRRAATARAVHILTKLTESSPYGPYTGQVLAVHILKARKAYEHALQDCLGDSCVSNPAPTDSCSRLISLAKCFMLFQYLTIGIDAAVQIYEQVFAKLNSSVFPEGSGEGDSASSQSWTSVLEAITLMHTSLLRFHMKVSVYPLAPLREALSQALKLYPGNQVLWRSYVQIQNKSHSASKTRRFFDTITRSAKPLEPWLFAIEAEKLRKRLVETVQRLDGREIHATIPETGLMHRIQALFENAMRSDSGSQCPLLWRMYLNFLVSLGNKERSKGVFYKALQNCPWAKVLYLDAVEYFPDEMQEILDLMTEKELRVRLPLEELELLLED
# The other results are listed elsewhere or left out.
# Compound: CC1Cc2ccccc2N1C(=O)C1CCCN(C1)C(=O)CCl (mixture of isomers) [TRIM25 ligand 11 (diastereomer mixture)]
# Assay: probe-labelled cysteine peptide fold change vs DMSO (competition) (log2 fold change); higher = less target engagement (more negative = stronger competition)
# Conditions: THP-1, incubation time: 4 h
# 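Note: competitive chemoproteomic profiling in live THP-1 cells with an iodoacetamide desthiobiotin (IA-DTB) probe, comparing probe-labelled peptide intensities in compound-treated cells against DMSO-treated controls.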
Target,probe-labelled cysteine peptide fold change (10 µM),probe-labelled cysteine peptide fold change (50 µM)
NPTX1_Q15818_89_CESQSTLDPGAGEAR (UniProt Q15818),-0.269,0.111
NSL1_Q96IY1_53_RAVTEMLQLCGR (UniProt Q96IY1),-0.194,0.0899
NSDHL_Q15738_340_VALAGTFHYYSCER (UniProt Q15738),-0.11,0.0292
NSUN2_Q08J23_184_ILDMCAAPGSK (UniProt Q08J23),-0.187,-0.297
NOTCH2_Q04721_1211_CSCPPGTR (UniProt Q04721),-0.0747,0.0473
NKRF_O15226_424_SSQCHTGSSPR (UniProt O15226),0.0529,-0.328
NOTCH2_Q04721_264_NIDDCPNHR (UniProt Q04721),0.0592,0.0855
NPC1_O15118_42_RYNCEYSGPPKPLPK (UniProt O15118),0.0384,0.059
NPLOC4_Q8TAT6_355_HPNMCR (UniProt Q8TAT6),-0.0774,-0.041
NOB1_Q9ULX3_285+288_VFCSHCGNK (UniProt Q9ULX3),-0.0482,0.0666
NRDC_O43847_966_QTLGYHVYPTCR (UniProt O43847),0.0395,0.0521
NOC4L_Q9BVI4_100_HRYHSCCNR (UniProt Q9BVI4),-0.154,-0.136
NSUN2_Q08J23_673+678_YEPDSANPDALQCPIVLCGWR (UniProt Q08J23),0.0479,0.0634
NOP56_O00567_211_IINDNATYCR (UniProt O00567),0.0968,0.113
NLE1_Q9NVX2_216_WITGLSWEPLHANPECR (UniProt Q9NVX2),0.0997,0.201
NOS1AP_O75052_31_IPLHNEDAFQHGICFEAK (UniProt O75052),-0.0491,0.0277
NKTR_P30414_173_VIDCGVLATK (UniProt P30414),-0.279,-0.176
NT5C3A_Q9H0P0_73_IKNPTRVEEIICGLIK (UniProt Q9H0P0),-0.102,-0.238
NLN_Q9BYT8_451_YNHAACFGLQPGCLLPDGSR (UniProt Q9BYT8),0.193,0.181
NLN_Q9BYT8_153_IVHLQETCDLGK (UniProt Q9BYT8),-0.0417,-0.0681
NR2C2AP_Q86WQ0_7_THSLVCPETVSR (UniProt Q86WQ0),0.106,-0.0117
NME7_Q9Y5B8_242_FTNCTCCIVKPHAVSEGLLGK (UniProt Q9Y5B8),0.102,0.243

Target,probe-labelled cysteine peptide fold change (10 µM),probe-labelled cysteine peptide fold change (50 µM)
NPEPPS_P55786_66_LPADVSPINYSLCLKPDLLDFTFEGK (UniProt P55786),0.0411,-0.151
NRDC_O43847_1027_LKECEDTHLGEEVDRNWNEVVTQQYLFDR (UniProt O43847),-0.368,-0.204
NOL4L_Q96MY1_148_TEVSGCPEDLTVGR (UniProt Q96MY1),-0.279,-0.0704
NOL9_Q5SY16_605_GYTNGPILLAQTPICDCLGFGICR (UniProt Q5SY16),0.436,0.153
NPEPL1_Q8NDH3_414_CGDLVHPLVYCPELHFSEFTSAVADMK (UniProt Q8NDH3),0.0209,-0.363
NQO2_P16083_223_EEPIPCTAHWHFGQ (UniProt P16083),0.213,0.0669
NSD2_O96028_1102_KGEFVNEYVGELIDEEECMAR (UniProt O96028),-0.163,-0.0932
NPRL2_Q8WTW4_9_IECIFFSEFHPTLGPK (UniProt Q8WTW4),-0.0194,0.145
NSD2_O96028_594_NLSDACK (UniProt O96028),0.105,-0.0321
NPLOC4_Q8TAT6_403_DECLLPCK (UniProt Q8TAT6),0.0256,-0.0669
NPC2_P61916_93_AVVHGILMGVPVPFPIPEPDGCK (UniProt P61916),-0.0636,-0.131
NSUN5P1_Q3KNT7_138_GLSTFPGAEHCLR (UniProt Q3KNT7),0.113,-0.0724
NPEPL1_Q8NDH3_311_DNLHAVFCLAENSVGPNATRPDDIHLLYSGK (UniProt Q8NDH3),-0.00606,0.0858
NMNAT1_Q9HAN9_111_LEASDCDHQQNSPTLERPGRK (UniProt Q9HAN9),-0.0614,-0.245
NR2C2AP_Q86WQ0_76_RGCLEGSQGTQALHK (UniProt Q86WQ0),0.0576,0.147
NLRX1_Q86UT6_767_KLGLQLNSLGPEACK (UniProt Q86UT6),-0.0963,-0.00779
NOTCH1_P46531_2140_SPQLHGAPLGGTPTLSPPLCSPNGYLGSLKPGVQGK (UniProt P46531),-0.134,-0.381
NOL10_Q9BSC4_202_VECWDPR (UniProt Q9BSC4),-0.069,0.121
NOP2_P46087_487_CAHLQK (UniProt P46087),-0.00715,0.0465
NOC2L_Q9Y3T9_585_VQENSAYICSR (UniProt Q9Y3T9),-0.11,-0.431
NSD2_O96028_743_FYHEACVK (UniProt O96028),-0.119,0.0514
NOL7_Q9UMY1_149_KNEDCEK (UniProt Q9UMY1),-0.0444,-0.0217

Target,probe-labelled cysteine peptide fold change (10 µM),probe-labelled cysteine peptide fold change (50 µM)
NOL9_Q5SY16_637_TVNCLLVGAIAIPHCVLK (UniProt Q5SY16),-0.12,-0.178
NOTCH1_P46531_1218_GTQGVHCEINVDDCNPPVDPVSR (UniProt P46531),0.186,-0.0677
NRDC_O43847_1027_ECEDTHLGEEVDRNWNEVVTQQYLFDR (UniProt O43847),0.162,0.0767
NOL8_Q76FK4_1020_EEGTPWNEDCGK (UniProt Q76FK4),-0.0925,-0.0722
NOL10_Q9BSC4_79_CYDTYQLSLK (UniProt Q9BSC4),0.257,0.182
NR2C2AP_Q86WQ0_76_GCLEGSQGTQALHK (UniProt Q86WQ0),0.166,0.0754
NSF_P46459_91_QCIGTMTIEIDFLQK (UniProt P46459),0.0636,0.14
NPAT_Q14207_1172_ENELCSDVER (UniProt Q14207),-0.152,-0.13
NOP56_O00567_112_IGAAIQEELGYNCQTGGVIAEILR (UniProt O00567),0.0784,-0.0484
NRDC_O43847_620_ANLVLLSGANEGKCDLK (UniProt O43847),-0.523,-0.114
NOTCH2_Q04721_870_CTIDIDECISK (UniProt Q04721),-0.0192,0.0735
NSD2_O96028_207_ESCPNTGR (UniProt O96028),-0.0691,-0.102
NLRP2_Q9NX02_692_SQDDQHMLPFWTDLCSIFGSNK (UniProt Q9NX02),-0.0737,-0.189
NOP10_Q9NPE3_28_KFDPMGQQTCSAHPAR (UniProt Q9NPE3),-0.0253,-0.279
NLRX1_Q86UT6_259_LAGTGLCSDPEEPQEPAAIIVNLLR (UniProt Q86UT6),0.274,-0.746
NOP2_P46087_393_ILDMCCAPGGK (UniProt P46087),-0.0381,-0.0998
NSD1_Q96L73_1689_ILASNSIICPNHFTPR (UniProt Q96L73),0.00705,-0.17
NPEPPSL1_A6NEC2_339_NSCSSSR (UniProt A6NEC2),0.0136,-0.0896
NRDC_O43847_1027_LKECEDTHLGEEVDR (UniProt O43847),0.0616,-0.176
NOM1_Q5C9Z4_696_EIIHVLMDCCLQEK (UniProt Q5C9Z4),0.174,0.251
NOL6_Q9H6R4_665_CYDDLSR (UniProt Q9H6R4),0.115,7.13e-05
NPM3_O75607_105_LSCQPMLSLDDFQLQPPVTFR (UniProt O75607),0.134,0.446

Target,probe-labelled cysteine peptide fold change (10 µM),probe-labelled cysteine peptide fold change (50 µM)
NT5C3A_Q9H0P0_73_VEEIICGLIK (UniProt Q9H0P0),0.0967,-0.154
NOP16_Q9Y3C1_36_IECSHIR (UniProt Q9Y3C1),0.0394,-0.165
NRBP1_Q9UHY1_340_LLAAHCIVGHQHMIPENALEEITK (UniProt Q9UHY1),0.0635,0.0281
NSD1_Q96L73_2072_CGAPNCSGFLGVRPK (UniProt Q96L73),-0.0879,0.0692
NKRF_O15226_386_VFLQDHCLAEGYGTK (UniProt O15226),0.179,0.0819
NSF_P46459_334_LGANSGLHIIIFDEIDAICK (UniProt P46459),0.0447,-0.14
NOL8_Q76FK4_556_QCIRPAEIVASLLEGEENTCGK (UniProt Q76FK4),-0.031,-0.204
NLRP2_Q9NX02_929_SSLLCLDLGLNHIGVK (UniProt Q9NX02),-0.046,0.0929
NR2F6_P10588_316_AIALFTPDACGLSDPAHVESLQEK (UniProt P10588),-0.0262,-0.322
NRBP2_Q9NSY0_34_EREDESEDESDILEESPCGR (UniProt Q9NSY0),0.125,0.0222
NRDE2_Q9H7Z3_1119_ALQNCPWAK (UniProt Q9H7Z3),0.118,-0.0837
NOTCH2_Q04721_364_VASFSCMCPEGK (UniProt Q04721),-0.0149,-0.178
NONO_Q15233_145_FACHSASLTVR (UniProt Q15233),0.123,0.0369
NLRX1_Q86UT6_644_AVLAQLGCPIK (UniProt Q86UT6),-0.0132,0.00874
NOL6_Q9H6R4_739_LDKPCPAYVEPMTVVCHLEGSGQWPQDAEAVQR (UniProt Q9H6R4),-0.16,-0.0265
NKTR_P30414_41_NFLCLCSGEK (UniProt P30414),-0.181,-0.0383
NSMCE2_Q96MF7_215_AYCPQIGCSHTDIR (UniProt Q96MF7),0.171,-0.112
NSD2_O96028_1323+1324_SYCCEHDLGAASVR (UniProt O96028),0.0302,-0.263
NOCT_Q9UK39_136_TDCPSTHPPIR (UniProt Q9UK39),-3.04e-05,-0.206

# Some of the entries so far, with tabs.
Target	probe-labelled cysteine peptide fold change (10 µM)	probe-labelled cysteine peptide fold change (50 µM)
NRDC_O43847_1027_LKECEDTHLGEEVDR (UniProt O43847)	0.0616	-0.176
NOM1_Q5C9Z4_696_EIIHVLMDCCLQEK (UniProt Q5C9Z4)	0.174	0.251
NOL6_Q9H6R4_665_CYDDLSR (UniProt Q9H6R4)	0.115	7.13e-05
NPM3_O75607_105_LSCQPMLSLDDFQLQPPVTFR (UniProt O75607)	0.134	0.446
NT5C3A_Q9H0P0_73_VEEIICGLIK (UniProt Q9H0P0)	0.0967	-0.154
NOP16_Q9Y3C1_36_IECSHIR (UniProt Q9Y3C1)	0.0394	-0.165
NRBP1_Q9UHY1_340_LLAAHCIVGHQHMIPENALEEITK (UniProt Q9UHY1)	0.0635	0.0281
NSD1_Q96L73_2072_CGAPNCSGFLGVRPK (UniProt Q96L73)	-0.0879	0.0692
NKRF_O15226_386_VFLQDHCLAEGYGTK (UniProt O15226)	0.179	0.0819
NSF_P46459_334_LGANSGLHIIIFDEIDAICK (UniProt P46459)	0.0447	-0.14
NOL8_Q76FK4_556_QCIRPAEIVASLLEGEENTCGK (UniProt Q76FK4)	-0.031	-0.204
NLRP2_Q9NX02_929_SSLLCLDLGLNHIGVK (UniProt Q9NX02)	-0.046	0.0929
NR2F6_P10588_316_AIALFTPDACGLSDPAHVESLQEK (UniProt P10588)	-0.0262	-0.322
NRBP2_Q9NSY0_34_EREDESEDESDILEESPCGR (UniProt Q9NSY0)	0.125	0.0222
NRDE2_Q9H7Z3_1119_ALQNCPWAK (UniProt Q9H7Z3)	0.118	-0.0837
NOTCH2_Q04721_364_VASFSCMCPEGK (UniProt Q04721)	-0.0149	-0.178
NONO_Q15233_145_FACHSASLTVR (UniProt Q15233)	0.123	0.0369
NLRX1_Q86UT6_644_AVLAQLGCPIK (UniProt Q86UT6)	-0.0132	0.00874
NOL6_Q9H6R4_739_LDKPCPAYVEPMTVVCHLEGSGQWPQDAEAVQR (UniProt Q9H6R4)	-0.16	-0.0265
NKTR_P30414_41_NFLCLCSGEK (UniProt P30414)	-0.181	-0.0383
NSMCE2_Q96MF7_215_AYCPQIGCSHTDIR (UniProt Q96MF7)	0.171	-0.112
NSD2_O96028_1323+1324_SYCCEHDLGAASVR (UniProt O96028)	0.0302	-0.263
NOCT_Q9UK39_136_TDCPSTHPPIR (UniProt Q9UK39)	-3.04e-05	-0.206
